Data as given in PubChem BioAssay AID504804 (Drosophila RNAi Screening Center, 2011)
Aim: 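Knock-downs shielding fly cells from apoptosis caused by DNA damage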 (primary screen). Cells: Drosophila Kc cells. Reagents: long dsRNA against Drosophila genes, 0.5 µg dsRNA per well. Time to read-out: 96 h (48 h knock-down, then 48 h drug). Treatment: doxorubicin 5 µg/ml for 48 h, added 48 h after dsRNA. Measured: 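Luminescent ATP counts per replicate, not normalised, reflecting viable cells after 48 h dsRNA knock-down followed by 48 h of 5 µg/ml doxorubicin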. Reading the numbers: raw ATP luminescence: higher = more viable cells, protection from doxorubicin. Active means: 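Active when both duplicate wells lie at least 2 SD above the plate mean and protection is confirmed by rescreening and independent dsRNAs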.
The screen tested about 19,000 reagents; shown is a random part of those with a known target gene and a result. In the full data, 47 (0.25%) were called active. 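Signals are raw, not normalised; exact z-scores behind calls not deposited; actives needed confirmation, so some wells reaching 2 SD are inactive.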 The numbers tell different reagents against one gene apart.

| gene | reagent | raw ATP luminescence, replicate 1 | raw ATP luminescence, replicate 2 | activity call |
| --- | --- | --- | --- | --- |
| IFT52 (GeneID 33917) | 1 | 23840 | 23417 | inactive |
| Golgin97 (GeneID 36492) | 1 | 57017 | 65107 | inactive |
| tn (GeneID 37190) | 1 | 1.80e5 | 1.35e5 | inactive |
| tn (GeneID 37190) | 2 | 60837 | 67517 | inactive |
| CSN3 (GeneID 40308) | 1 | 60343 | 55793 | inactive |
| CG16890 (GeneID 34781) | 1 | 76647 | 59273 | inactive |
| CG7384 (GeneID 34447) | 1 | 1.03e5 | 90397 | inactive |
| CG12177 (GeneID 32326) | 1 | 3.51e5 | 3.20e5 | inactive |
| nyo (GeneID 43716) | 1 | 45670 | 48400 | inactive |
| nyo (GeneID 43716) | 2 | 39690 | 43850 | inactive |
| ppk25 (GeneID 2768722) | 1 | 38943 | 77607 | inactive |
| CG10887 (GeneID 42399) | 1 | 25160 | 30910 | inactive |
| RhoGEF3 (retired record) (GeneID 38051) | 1 | 50343 | 58597 | inactive |
| ATP6 (retired record) (GeneID 192467) | 1 | 2.62e5 | 2.79e5 | inactive |
| CG7483 (GeneID 40987) | 1 | 71633 | 59190 | inactive |
| CG1239 (GeneID 40706) | 1 | 75383 | 37907 | inactive |
| mfas (GeneID 41455) | 1 | 79200 | 46373 | inactive |
| hdly (GeneID 42478) | 1 | 46120 | 68070 | inactive |
| Rcd6 (GeneID 37332) | 1 | 55897 | 57597 | inactive |
| CG34429 (GeneID 5740606) | 1 | 77580 | 1.63e5 | inactive |
| lncRNA:CR32658 (GeneID 3772624) | 1 | 3.39e5 | 3.15e5 | inactive |
| CG14220 (GeneID 32954) | 1 | 3.35e5 | 2.57e5 | inactive |
| sls (GeneID 44013) | 1 | 54000 | 57293 | inactive |
| Pex16 (GeneID 40293) | 1 | 37210 | 33363 | inactive |
| CG17625 (GeneID 42678) | 1 | 50330 | 64150 | inactive |
| qjt (GeneID 39952) | 1 | 45657 | 39430 | inactive |
| Ddr (GeneID 3346209) | 1 | 2.88e5 | 3.17e5 | inactive |
| Ddr (GeneID 3346209) | 2 | 2.81e5 | 2.95e5 | inactive |
| Ddr (GeneID 3346209) | 3 | 48650 | 36370 | inactive |
| Ddr (GeneID 3346209) | 4 | 29380 | 28370 | inactive |
| Ddr (GeneID 3346209) | 5 | 22897 | 34973 | inactive |
| CG18748 (GeneID 59144) | 1 | 52580 | 52673 | inactive |
| CG42272 (GeneID 318020) | 1 | 2.03e5 | 1.80e5 | inactive |
| Nubpl (GeneID 35452) | 1 | 68630 | 67383 | inactive |
| beat-IIIb (GeneID 35031) | 1 | 79823 | 77747 | inactive |
| HP1e (GeneID 41108) | 1 | 27807 | 48727 | inactive |
| Gnpat (GeneID 53586) | 1 | 63110 | 73750 | inactive |
| CG7069 (GeneID 42621) | 1 | 36133 | 44650 | inactive |
| CG30356 (GeneID 246562) | 1 | 1.01e5 | 89857 | inactive |
| PAPLA1 (GeneID 34109) | 1 | 1.02e5 | 44183 | inactive |
| PAPLA1 (GeneID 34109) | 2 | 44163 | 82250 | inactive |
| CG10254 (GeneID 42793) | 1 | 30163 | 45250 | inactive |
| Nrg (GeneID 31792) | 1 | 1.97e5 | 1.83e5 | inactive |

No new results follow: 14 of the entries above.
| gene | reagent | raw ATP luminescence, replicate 1 | raw ATP luminescence, replicate 2 | activity call |
| --- | --- | --- | --- | --- |
| CG17625 (GeneID 42678) | 1 | 50330 | 64150 | inactive |
| qjt (GeneID 39952) | 1 | 45657 | 39430 | inactive |
| Ddr (GeneID 3346209) | 1 | 2.88e5 | 3.17e5 | inactive |
| Ddr (GeneID 3346209) | 2 | 2.81e5 | 2.95e5 | inactive |
| Ddr (GeneID 3346209) | 3 | 48650 | 36370 | inactive |
| Ddr (GeneID 3346209) | 4 | 29380 | 28370 | inactive |
| Ddr (GeneID 3346209) | 5 | 22897 | 34973 | inactive |
| CG18748 (GeneID 59144) | 1 | 52580 | 52673 | inactive |
| CG42272 (GeneID 318020) | 1 | 2.03e5 | 1.80e5 | inactive |
| Nubpl (GeneID 35452) | 1 | 68630 | 67383 | inactive |
| beat-IIIb (GeneID 35031) | 1 | 79823 | 77747 | inactive |
| HP1e (GeneID 41108) | 1 | 27807 | 48727 | inactive |
| Gnpat (GeneID 53586) | 1 | 63110 | 73750 | inactive |
| CG7069 (GeneID 42621) | 1 | 36133 | 44650 | inactive |

The results go on.
| gene | reagent | raw ATP luminescence, replicate 1 | raw ATP luminescence, replicate 2 | activity call |
| --- | --- | --- | --- | --- |
| Tsf1 (GeneID 32821) | 1 | 3.23e5 | 3.00e5 | inactive |
| r2d2 (GeneID 34066) | 1 | 44250 | 64757 | inactive |
| CG13247 (GeneID 40247) | 1 | 77643 | 65080 | inactive |
| Obp19c (GeneID 33039) | 1 | 2.65e5 | 2.67e5 | inactive |
| CG7275 (GeneID 39669) | 1 | 33487 | 22853 | inactive |
| CG12288 (GeneID 35027) | 1 | 74383 | 77533 | inactive |
| CG14262 (GeneID 43286) | 1 | 62840 | 49980 | inactive |
| kl-3 (retired record) (GeneID 5740653) | 1 | 2.13e5 | 2.01e5 | inactive |
| kl-3 (retired record) (GeneID 5740653) | 2 | 3.76e5 | 2.68e5 | inactive |
| kl-3 (retired record) (GeneID 5740653) | 3 | 2.30e5 | 2.37e5 | inactive |
| trv (GeneID 43362) | 1 | 2.09e5 | 2.06e5 | inactive |
| trv (GeneID 43362) | 2 | 44690 | 32240 | inactive |
| trv (GeneID 43362) | 3 | 53530 | 38200 | inactive |
| trv (GeneID 43362) | 4 | 54120 | 44270 | inactive |
| tutl (GeneID 46015) | 1 | 32147 | 26690 | inactive |
| tutl (GeneID 46015) | 2 | 27100 | 29103 | inactive |
| tutl (GeneID 46015) | 3 | 27660 | 20140 | inactive |
| CG8031 (GeneID 41601) | 1 | 59870 | 21263 | inactive |
| CG34265 (GeneID 5740186) | 1 | 1.21e5 | 1.51e5 | inactive |
| Alg12 (GeneID 41191) | 1 | 56687 | 63617 | inactive |
| CG14567 (GeneID 40420) | 1 | 74180 | 77443 | inactive |
| CG9662 (GeneID 33554) | 1 | 28257 | 26873 | inactive |
| Or43b (GeneID 35743) | 1 | 34787 | 71530 | inactive |
| Ice2 (GeneID 42507) | 1 | 42883 | 67770 | inactive |
| Lcp2 (GeneID 35818) | 1 | 43923 | 77573 | inactive |
| CG17375 (GeneID 33956) | 1 | 30507 | 34760 | inactive |
| Edem2 (GeneID 34714) | 1 | 67070 | 99760 | inactive |
| CR11700 (retired record) (GeneID 5740245) | 1 | 10260 | 10240 | inactive |
| rl (GeneID 3354888) | 1 | 3.30e5 | 3.17e5 | inactive |
| Nepl15 (GeneID 42701) | 1 | 41013 | 41567 | inactive |
| CG31446 (GeneID 318741) | 1 | 2.46e5 | 2.63e5 | inactive |
| mxt (GeneID 33686) | 1 | 1.02e5 | 70050 | inactive |
| CG3280 (retired record) (GeneID 39117) | 1 | 71180 | 63860 | inactive |
| dpr20 (GeneID 38101) | 1 | 59680 | 62097 | inactive |
| CG3257 (GeneID 37862) | 1 | 66240 | 55923 | inactive |
| CG32241 (GeneID 317934) | 1 | 1.60e5 | 1.52e5 | inactive |
| CG15754 (GeneID 32307) | 1 | 3.13e5 | 3.01e5 | inactive |
| kar (GeneID 45883) | 1 | 55313 | 28767 | inactive |
| Kif3C (GeneID 43820) | 1 | 62680 | 60690 | inactive |
| Kif3C (GeneID 43820) | 2 | 57900 | 74750 | inactive |
| gom (GeneID 43934) | 1 | 63147 | 50970 | inactive |
